Like-named read-outs stand apart in the source and are kept apart here. No constants are given. Whether binding was seen depends on the method and setting. Some results given as binding are weak or reduced against the parent protein; the word gives no strength. For some assays here: Tags and fused reporters may be left off the sequences shown.
What was measured:
[1] = molecular target: KmSte7 (Ste7 of Kluyveromyces marxianus), Gal4-BD fusion (K. marxianus); assay: two-hybrid; Matchmaker GAL4 system; Ste5 forms on Gal4-AD (pGADT7, AH109), Ste7 orthologs on Gal4-BD (pGBKT7, Y187), diploids on SC-Leu-Trp; quantitative β-galactosidase assay of cell lysate with ONPG; units of the same BD-Ste7 with void pGADT7 subtracted; mean of three colonies
[2] = molecular target: KmSte7 (Ste7 of Kluyveromyces marxianus), Gal4-BD fusion (K. marxianus); assay: as above; remark: listed apart in the source

KmSte5ΔS (KmSte5 with the negatively charged segment shortened to the length of that of KlSte5), Gal4-AD fusion (from UniProt A0ABX6ETE1 1-763)
binding [1]: binds

B1: ScSte5 (Ste5 of Saccharomyces cerevisiae), Gal4-AD fusion (protein, UniProt P32917 1-917)
chain: MMETPTDNIVSPFHNFGSSTQYSGTLSRTPNQIIELEKPSTLSPLSRGKKWTEKLARFQRSSAKKKRFSPSPISSSTFSFSPKSRVTSSNSSGNEDGNLMNTPSTVSTDYLPQHPHRTSSLPRPNSNLFHASNSNLSRANEPPRAENLSDNIPPKVAPFGYPIQRTSIKKSFLNASCTLCDEPISNRRKGEKIIELACGHLSHQECLIISFGTTSKADVRALFPFCTKCKKDTNKAVQCIPENDELKDILISDFLIHKIPDSELSITPQSRFPPYSPLLPPFGLSYTPVERQTIYSQAPSLNPNLILAAPPKERNQIPQKKSNYTFLHSPLGHRRIPSGANSILADTSVALSANDSISAVSNSVRAKDDETKTTLPLLRSYFIQILLNNFQEELQDWRIDGDYGLLRLVDKLMISKDGQRYIQCWCFLFEDAFVIAEVDNDVDVLEIRLKNLEVFTPIANLRMTTLEASVLKCTLNKQHCADLSDLYIVQNINSDESTTVQKWISGILNQDFVFNEDNITSTLPILPIIKNFSKDVGNGRHETSTFLGLINPNKVVEVGNVHDNDTVIIRRGFTLNSGECSRQSTVDSIQSVLTTISSILSLKREKPDNLAIILQIDFTKLKEEDSLIVVYNSLKALTIKFARLQFCFVDRNNYVLDYGSVLHKIDSLDSISNLKSKSSSTQFSPIWLKNTLYPENIHEHLGIVAVSNSNMEAKKSILFQDYRCFTSFGRRRPNELKIKVGYLNVDYSDKIDELVEASSWTFVLETLCYSFGLSFDEHDDDDEEDNDDSTDNELDNSSGSLSDAESTTTIHIDSPFDNENATANMVNDRNLLTEGEHSNIENLETVASSVQPALIPNIRFSLHSEEEGTNENENENDMPVLLLSDMDKGIDGITRRSSFSSLIESGNNNCPLHMDYI
binding [2]: binds
